Measurements reported in PubChem BioAssay AID652243 (Drosophila RNAi Screening Center, 2013)
The deposit covers about 24,000 reagents; shown is a random part of those with a known target gene and a result. Of all reagents, 246 (1%) are marked active. 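Plates not normalised; calls are printed but the firefly/Renilla ratio behind them is not deposited; fold cut for lowering reported inconsistently.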 Raw values are not corrected between plates. A number with no mark means an inactive call. The record does not give: the amount of reagent.

Aim: 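Fly genes required for human androgen receptor driven transcription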 (primary screen)
Cell system: Drosophila S2R+ cells
Knock-down reagent: long dsRNA against Drosophila genes
Duration: 72 h (48 h, then 24 h hormone)
Conditions: synthetic androgen R1881 at 10 nM for 24 h
Detection: 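Firefly light from an androgen-responsive reporter and Renilla control light per well, raw and unnormalised, for each of two replicates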
Scale: firefly reporter light: higher = more light from androgen-responsive reporter; Renilla control light: higher = more constitutive control signal (cell number, transfection)
Rule for the call: 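Across duplicate plates, a knock-down whose log firefly/Renilla ratio shifted a set fold down or up from the GFP/LacZ control mean was a hit; the downward cut appears as both 1.5 and 3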
Meaning of the calls: active = hit: reporter lowered or raised; inactive = no hit

no.	gene	dsRNA	firefly reporter light, replicate 1	firefly reporter light, replicate 2	Renilla control light, replicate 1	Renilla control light, replicate 2
1	SppL	DRSC15228	1.16e5	1.26e5	1.91e6	2.03e6
2	Vti1a	DRSC08563	1.03e6	9.08e5	1.23e6	1.02e6
3	mRpS28	DRSC06939	85392	1.72e5	1.57e6	1.91e6
4	ppk6	DRSC06062	45186	50169	4.98e5	5.55e5
5	ppk6	DRSC29267	4.98e5	3.67e5	2.11e6	1.83e6
6	ppk6	DRSC39033	1.00e6	1.12e6	2.31e6	2.16e6
7	Nipsnap	DRSC20169	69961	72621	6.70e5	7.94e5
8	Vsx1	DRSC23004	6.45e5	8.28e5	1.70e6	2.00e6
9	Vsx1	DRSC25808	4.36e5	4.48e5	9.36e5	6.82e5
10	CG4783	DRSC15644	5.68e5	5.03e5	2.27e6	3.13e6
11	CG32176	DRSC10057	3.30e5	2.91e5	2.12e6	2.36e6
12	CG32176	DRSC10058	2.41e5	1.27e5	2.94e6	1.44e6
13	CG11112	DRSC06038	4.09e5	4.45e5	1.82e6	1.51e6
14	CG11112	DRSC25552	9.29e5	1.01e6	9.55e5	1.17e6
15	spas	DRSC15929	59344	77420	3.57e5	4.04e5
16	CG31789	DRSC01645	1.92e5	1.45e5	3.03e5	4.35e5
17	CG31789	DRSC25757	5.56e5	3.89e5	7.92e5	6.78e5
18	CG17219	DRSC00486	1.21e5	1.03e5	1.04e6	8.90e5
19	Eaf6	DRSC09901	3.92e5	3.30e5	2.38e6	3.45e6
20	KLHL18	DRSC15496	59582	49714	4.17e5	4.98e5
21	KLHL18	DRSC26629	2.51e5	2.71e5	5.56e5	4.91e5
22	EMC7	DRSC07162	76573 (active)	85657	2.24e6	2.24e6
23	cn	DRSC07594	2.78e5	1.92e5	2.03e6	1.58e6
24	l(2)efl	DRSC04698	6.05e5	5.55e5	1.13e6	1.07e6
25	CG14518	DRSC14870	2.42e5	2.08e5	2.91e6	3.02e6
26	CG14518	DRSC27614	2.72e5	2.61e5	4.89e5	9.18e5
27	CG31344	DRSC16069	2.14e5	2.60e5	3.00e6	3.32e6
28	CG31344	DRSC29593	3.70e5	4.54e5	8.21e5	8.21e5
29	CG42514	DRSC10428	21901	23272	2.62e5	2.14e5
30	Cpr35B	DRSC01949	4.77e5	3.18e5	3.25e6	2.33e6
31	Cpr35B	DRSC22797	4.21e5	6.96e5	5.63e5	9.57e5
32	Cpr35B	DRSC26431	3.19e5	2.49e5	6.16e5	3.25e5
33	drm	DRSC00277	75842	93061	6.78e5	9.92e5
34	MagR	DRSC20092	2.85e5	2.28e5	2.61e6	1.52e6
35	Proc-R	DRSC18410	1.68e5	2.47e5	2.49e6	3.53e6
36	MME1	DRSC02714	6.46e5	8.88e5	1.74e6	2.45e6
37	CG13332	DRSC06367	1.36e5	1.40e5	2.76e6	2.76e6
38	CG11131	DRSC11636	2.68e5	2.34e5	1.77e6	1.71e6
39	CG11131	DRSC21736	2.45e5	2.81e5	2.10e6	2.84e6
40	CG11131	DRSC28565	2.00e5	4.09e5	6.60e5	1.19e6
